Measurements: PMC7819943, “Rice protein-binding microarrays: a tool to detect cis-acting elements near promoter regions in rice”
This is one part of the list.

Chains of the proteins cited; added tags and fusions are not shown.
UniProt Q0JBA9, entry or part of it: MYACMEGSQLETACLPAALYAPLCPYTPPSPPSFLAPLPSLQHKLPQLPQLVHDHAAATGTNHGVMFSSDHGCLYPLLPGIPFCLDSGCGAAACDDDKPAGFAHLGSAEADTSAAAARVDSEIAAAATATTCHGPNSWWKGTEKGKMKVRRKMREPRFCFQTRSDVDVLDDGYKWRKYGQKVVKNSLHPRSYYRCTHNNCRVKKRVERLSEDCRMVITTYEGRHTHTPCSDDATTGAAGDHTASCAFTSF

Target: OsWRKY34 (Oryza sativa, UniProt Q0JBA9 1-250)
Assay: protein-binding microarray (RPBM); PBS, 2% BSA, 51.3 ng/ul salmon testes DNA, 50 uM zinc acetate, 200 nM TF, 25 C, 1 h; high values mean tight binding
Settings: protein: recombinant; tags: N-terminal polyhistidine and DsRed monomer fusion (pET32a); label: CyDye5-dUTP incorporated in the synthesized complementary strand; 3' TTTTT single-stranded linker to array surface; dsDNA, one strand shown
Summary of the method: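 Ni–NTA purification followed expression in E. coli BL21-CodonPlus of transcription factors fused N-terminally to a polyhistidine tag and DsRed. At 200 nM in PBS with 2% BSA, salmon testes DNA and 50 µM zinc acetate, the protein was incubated for 1 h at 25 °C with a custom Agilent array that had been primer-extended with Cy5-dUTP and blocked with 2% BSA. After washing, the array was read on an Axon 4000B scanner. The binding signal is per-feature fluorescence intensity in arbitrary units.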

Sequence	binding signal
CCCCACCCACCGCCAGCAAAATTTTTAATCCTGAGTAAATCGGAGTCACCTAGTGCAG	8360 fluorescence intensity (a.u.)
GAGTTAAGCAGATCTCCCAGGCCTCGTGTTTTCTGTCAACCGGAGTCACCTAGTGCAG	9780 fluorescence intensity (a.u.)
CCCAACCAAAGTCAACGCCAAAAGCTGCGATTTTTTTTTCCGGAGTCACCTAGTGCAG	10400 fluorescence intensity (a.u.)
TCCTACCTACAGCTATAGCTGCGTGCCGGGGTTGGGGCTGCGGAGTCACCTAGTGCAG	8750 fluorescence intensity (a.u.)
ACACAGTAACACGTAAGGCCTCCTTGTATGGGCCTCAATCCGGAGTCACCTAGTGCAG	9100 fluorescence intensity (a.u.)
GAGGGTTAGAATTAGAAGTTGTTCTTTCAGAAGGTGGGAACGGAGTCACCTAGTGCAG	8180 fluorescence intensity (a.u.)
GCCTTACCAATTTTTGTCAATGTCAAATTTGGCAACTTTTCGGAGTCACCTAGTGCAG	8050 fluorescence intensity (a.u.)
ACGTGGCGCAATTTTTTCCCTTTTGTTTGTTTTCATTCGGCGGAGTCACCTAGTGCAG	8440 fluorescence intensity (a.u.)
GACACGCTGATCCCGTTCGTCACCATAAGCTTGTCTCATACGGAGTCACCTAGTGCAG	10700 fluorescence intensity (a.u.)
CCCATCAAACCATGGGCCCCACACGGCAGCAGCCCATCTCCGGAGTCACCTAGTGCAG	8150 fluorescence intensity (a.u.)
TCATATCGTTGTGCTAGTATCCGGCGCCGCTTCCGTTCATCGGAGTCACCTAGTGCAG	11400 fluorescence intensity (a.u.)
CTTACACCTTCATCTTCAACTATATTCTTGGTTTCTTCATCGGAGTCACCTAGTGCAG	10900 fluorescence intensity (a.u.)
CTCTTATCTTTTTTCCAACTGCATACCGGCCAAGAGAAGACGGAGTCACCTAGTGCAG	8300 fluorescence intensity (a.u.)
AATTGCCTTCGTCTGCGCCCCGCGGGCTCTCGTCCCAACCCGGAGTCACCTAGTGCAG	8840 fluorescence intensity (a.u.)
ATCATCTTGCGAATCAAGCATACACACAAACACTTCATTTCGGAGTCACCTAGTGCAG	8050 fluorescence intensity (a.u.)
CCGATCCATCTCGACTCGACGCCCCAAGCAGCCAAGCTGACGGAGTCACCTAGTGCAG	8630 fluorescence intensity (a.u.)
CCTCCATGCCTCCTCCGCCATCTCTCTCTCTCTCTCGCTCCGGAGTCACCTAGTGCAG	9060 fluorescence intensity (a.u.)
AATCTCACGAACCCTTGCGCCGTCGGTCTCTCTCTCTCGCCGGAGTCACCTAGTGCAG	8420 fluorescence intensity (a.u.)
CCGGCGACCTCGAGCCTTCCGCTCATCCATCTCTGCAGAGCGGAGTCACCTAGTGCAG	10400 fluorescence intensity (a.u.)
CGGCGACCGTTGATATTTCTCGTCTCTCATCTCACCACCGCGGAGTCACCTAGTGCAG	8040 fluorescence intensity (a.u.)
AGGTTGGTTGGTTCACACTTCACACACATCTTTTTCGACCCGGAGTCACCTAGTGCAG	12400 fluorescence intensity (a.u.)

An excerpt from further up, as a working copy:
Sequence	binding signal
ACACAGTAACACGTAAGGCCTCCTTGTATGGGCCTCAATCCGGAGTCACCTAGTGCAG	9100 fluorescence intensity (a.u.)
GAGGGTTAGAATTAGAAGTTGTTCTTTCAGAAGGTGGGAACGGAGTCACCTAGTGCAG	8180 fluorescence intensity (a.u.)
GCCTTACCAATTTTTGTCAATGTCAAATTTGGCAACTTTTCGGAGTCACCTAGTGCAG	8050 fluorescence intensity (a.u.)
ACGTGGCGCAATTTTTTCCCTTTTGTTTGTTTTCATTCGGCGGAGTCACCTAGTGCAG	8440 fluorescence intensity (a.u.)
GACACGCTGATCCCGTTCGTCACCATAAGCTTGTCTCATACGGAGTCACCTAGTGCAG	10700 fluorescence intensity (a.u.)
CCCATCAAACCATGGGCCCCACACGGCAGCAGCCCATCTCCGGAGTCACCTAGTGCAG	8150 fluorescence intensity (a.u.)
TCATATCGTTGTGCTAGTATCCGGCGCCGCTTCCGTTCATCGGAGTCACCTAGTGCAG	11400 fluorescence intensity (a.u.)
CTTACACCTTCATCTTCAACTATATTCTTGGTTTCTTCATCGGAGTCACCTAGTGCAG	10900 fluorescence intensity (a.u.)
CTCTTATCTTTTTTCCAACTGCATACCGGCCAAGAGAAGACGGAGTCACCTAGTGCAG	8300 fluorescence intensity (a.u.)
AATTGCCTTCGTCTGCGCCCCGCGGGCTCTCGTCCCAACCCGGAGTCACCTAGTGCAG	8840 fluorescence intensity (a.u.)
ATCATCTTGCGAATCAAGCATACACACAAACACTTCATTTCGGAGTCACCTAGTGCAG	8050 fluorescence intensity (a.u.)
CCGATCCATCTCGACTCGACGCCCCAAGCAGCCAAGCTGACGGAGTCACCTAGTGCAG	8630 fluorescence intensity (a.u.)
CCTCCATGCCTCCTCCGCCATCTCTCTCTCTCTCTCGCTCCGGAGTCACCTAGTGCAG	9060 fluorescence intensity (a.u.)
AATCTCACGAACCCTTGCGCCGTCGGTCTCTCTCTCTCGCCGGAGTCACCTAGTGCAG	8420 fluorescence intensity (a.u.)

Further entries

Sequence	binding signal
TTTGCCAAAATTTGATTAATTTCGTTTGACTTTTGCCGTTCGGAGTCACCTAGTGCAG	13500 fluorescence intensity (a.u.)
ATTCCTCATCTCGTTGATGCCGACTTATATCTGCCCTGATCGGAGTCACCTAGTGCAG	9330 fluorescence intensity (a.u.)
AAATTCTACCGCATCGTGGCCCACTTCGCCTCTCTTTCCTCGGAGTCACCTAGTGCAG	10800 fluorescence intensity (a.u.)
CATCACGGCACAAAAATATCTTCATATTTGCTCACATCAGCGGAGTCACCTAGTGCAG	8030 fluorescence intensity (a.u.)
GCTCCTCCTTGCTGTTCATGGCCACCGGGAGGGAGAGGGGCGGAGTCACCTAGTGCAG	8210 fluorescence intensity (a.u.)
CACCACCCGCCGCCGTCGCCGTTGCCGTCGTCTTCGTTTCCGGAGTCACCTAGTGCAG	13900 fluorescence intensity (a.u.)
TACTCGCCCACCTTGTCGTCGCCGTCGAAGCCATCGCCACCGGAGTCACCTAGTGCAG	8640 fluorescence intensity (a.u.)
ATCTTGCTGCCACGACCACCACCCATAAGCATCACCCACACGGAGTCACCTAGTGCAG	11300 fluorescence intensity (a.u.)
GGGTGTGGATATAGCAAATTTTGAGGCAAGGATGCAGGCACGGAGTCACCTAGTGCAG	8260 fluorescence intensity (a.u.)
CCACGTGCCCCTCGTGGTGGTCGTCCCCGCGCCCCAGCTTCGGAGTCACCTAGTGCAG	8310 fluorescence intensity (a.u.)
TGTTCTCCTCCTAATGTGCTGTCATTTTCTGTATGCTATTCGGAGTCACCTAGTGCAG	9830 fluorescence intensity (a.u.)
CCCTAGCCCTCGCCCTGGTCCGTCCGGCGTGGCGCGCGCTCGGAGTCACCTAGTGCAG	8030 fluorescence intensity (a.u.)
CTACCGTATACACTTGCAAGTACATAATTTATTTTTTTTTCGGAGTCACCTAGTGCAG	8440 fluorescence intensity (a.u.)
CCTTGACAGATTAATCCTACGTTTTGACCCCATATGTTTTCGGAGTCACCTAGTGCAG	8880 fluorescence intensity (a.u.)
TTTTTTTTGGGTTTGTTGGAACCATGCCACCCTATATTTACGGAGTCACCTAGTGCAG	8200 fluorescence intensity (a.u.)
ACTTTTCGTTGCCGTGTTGGGATGTGCACCCTGATACCCGCGGAGTCACCTAGTGCAG	8590 fluorescence intensity (a.u.)
ATCACGTACTACCGGGCGTCCCCACTATTTTCAGCCCACACGGAGTCACCTAGTGCAG	15300 fluorescence intensity (a.u.)
TTTTTTTCTTTTCTGCTTCTTTCTCGTGATCGATCGCTATCGGAGTCACCTAGTGCAG	8730 fluorescence intensity (a.u.)
TCAAGCACTTCAGAGTCTTCTTCTTTCTCTGCTTTTGGGGCGGAGTCACCTAGTGCAG	9900 fluorescence intensity (a.u.)
ACTTATTATCCATTTAAATATGCTACTAGTCATTCCTCATCGGAGTCACCTAGTGCAG	9030 fluorescence intensity (a.u.)
GTTTCTTTTGCTACCTTTTTAACCGCTAATAGCATAAATGCGGAGTCACCTAGTGCAG	8080 fluorescence intensity (a.u.)

Sequence	binding signal
TTTTTTTCGGTCTCAATATTTTTTTTTCTCACGTCTTTCGCGGAGTCACCTAGTGCAG	10800 fluorescence intensity (a.u.)
ACACTGGTCTTCTACTCTGTTATCATCTGTTCAGGAAACACGGAGTCACCTAGTGCAG	8120 fluorescence intensity (a.u.)
GTCCTAATATGTGCAATTAATTATTTTTTTAGCCTACATTCGGAGTCACCTAGTGCAG	9300 fluorescence intensity (a.u.)
CCACATCCATCTATCATCGTGCATAAGCTTCCTATCATACCGGAGTCACCTAGTGCAG	8180 fluorescence intensity (a.u.)
GGGTGTCTTGATGGTTATGATACTGATTTTCTTTATGTCTCGGAGTCACCTAGTGCAG	8260 fluorescence intensity (a.u.)
ATCTCTGTCTCTGTCTGTCAATCTCACGCACACCAGCACACGGAGTCACCTAGTGCAG	9420 fluorescence intensity (a.u.)
ATATATCCATAGTTCTATACACAAAGCGTACCTGTTCTTTCGGAGTCACCTAGTGCAG	9950 fluorescence intensity (a.u.)
ACTTCACCAACCTATCTGGCCCGCTCACTACCGGCACAATCGGAGTCACCTAGTGCAG	11000 fluorescence intensity (a.u.)
ACCGTTCCAGGATTCCAGCACATACTGATGCATCCTTTTTCGGAGTCACCTAGTGCAG	8660 fluorescence intensity (a.u.)
GCCTGGTCTGGTCTTGTTGTATAAAATCTCTTAATTGCCACGGAGTCACCTAGTGCAG	8620 fluorescence intensity (a.u.)
CATGATCGCTGTGCACCTTCTGAATCATCTCTTCAATGGCCGGAGTCACCTAGTGCAG	9780 fluorescence intensity (a.u.)
TTTACCGTTTTACCCCTCGCCGGCGGCCGCCGCACTCCGGCGGAGTCACCTAGTGCAG	8820 fluorescence intensity (a.u.)
GTCTACATGAACCATTCCAAATGACTTTTATAGGATTTCACGGAGTCACCTAGTGCAG	8340 fluorescence intensity (a.u.)
ATTCACGCCGCTGCGGCCGCTTGCACATCCACGCACTTTGCGGAGTCACCTAGTGCAG	10400 fluorescence intensity (a.u.)
CGTTCTGCCCCGGTTGTTTGCTACTCGCGTCCACGCGATCCGGAGTCACCTAGTGCAG	8930 fluorescence intensity (a.u.)
GATGTCTTTTACTCCCATGTTAGCAGTGCCGAGATTTCGTCGGAGTCACCTAGTGCAG	9800 fluorescence intensity (a.u.)
GGGTGTTTGTGAGAGAGAGAGAGAGAGAGAGATTCCATTTCGGAGTCACCTAGTGCAG	8390 fluorescence intensity (a.u.)
GCAAACCATATTTTCGTCGGTCTACTTCTGGGAATTCGTTCGGAGTCACCTAGTGCAG	8360 fluorescence intensity (a.u.)
CATTTGTTTCGACCGCTTCAAGCCTTGGATGCTCTGCTCTCGGAGTCACCTAGTGCAG	11400 fluorescence intensity (a.u.)
GACTTCATTGGTATTAAGATATATTGACTTAATTTTTGTCCGGAGTCACCTAGTGCAG	8180 fluorescence intensity (a.u.)
GATCTTTCAGCTCCTTGACAGCACTGCGTCTTCTATCATACGGAGTCACCTAGTGCAG	8230 fluorescence intensity (a.u.)

Sequence	binding signal
GCAAATGTCCTACTCTGTTTAATGCCAAACCACCCACAATCGGAGTCACCTAGTGCAG	9480 fluorescence intensity (a.u.)
CATGCTGACTTTACAATCACTTTCTTCAACCCAATGTACTCGGAGTCACCTAGTGCAG	8290 fluorescence intensity (a.u.)
TCCCATGCCGCGCTCGTCGATCCCCAAATCTCGCCGCCGGCGGAGTCACCTAGTGCAG	9000 fluorescence intensity (a.u.)
TGCTTTACTTTCCATTCCCATTGCAACCCCACAACTTTCTCGGAGTCACCTAGTGCAG	10200 fluorescence intensity (a.u.)
GTGAAGGTGTTGTTGTTGGTGGTGGTGGATTTTCGCCATGCGGAGTCACCTAGTGCAG	10100 fluorescence intensity (a.u.)
GCCTGAGTTCCAGCTAAGTCGTTGACTAACTCCCAGCAAACGGAGTCACCTAGTGCAG	13400 fluorescence intensity (a.u.)
TTTGCTGCTGAATGTTATATGTGTCGTTCCTATAAAATCCCGGAGTCACCTAGTGCAG	8380 fluorescence intensity (a.u.)
CCTCTCCCGTCGCCACCCATCTCGCCGCGACCTGGAGATCCGGAGTCACCTAGTGCAG	8750 fluorescence intensity (a.u.)
ATCCTGACCCATAGTTGGCCGTACGTTGTTTGCCCATCCACGGAGTCACCTAGTGCAG	11800 fluorescence intensity (a.u.)
TCACCTTAGACCCTGTTTAATTCACATTAAACTTTTCCTACGGAGTCACCTAGTGCAG	8480 fluorescence intensity (a.u.)
TTTAAATTTATATTTCTAATTAATTAGGTTGTGTTTTTATCGGAGTCACCTAGTGCAG	9020 fluorescence intensity (a.u.)
GGAGACCATCGCCCCTGTTCTCGTCGTCATCGCGGAGGTTCGGAGTCACCTAGTGCAG	11100 fluorescence intensity (a.u.)
GTACTAAGTTCTTTCTTTGACTTACCGTTTAAGGTCGTCTCGGAGTCACCTAGTGCAG	9490 fluorescence intensity (a.u.)
TTGGTCAAAGTCAAACTGCTTTAAGTTTGACCAAGTTTGTCGGAGTCACCTAGTGCAG	21500 fluorescence intensity (a.u.)
GTAGCTTCTCCGGTTGGCGTCATACACCACCTTTACCTCGCGGAGTCACCTAGTGCAG	8320 fluorescence intensity (a.u.)
ATTATTTTGTCTTCCGCTGTTGTTCTCTGATAGTTGTTGGCGGAGTCACCTAGTGCAG	8170 fluorescence intensity (a.u.)
GAACTATTACTCCATCCGGTTTCATATTCCTAACATTTTACGGAGTCACCTAGTGCAG	12500 fluorescence intensity (a.u.)
AGATTCAGTTCTTCATTTGGTTATTATCTAAAGAACGCCTCGGAGTCACCTAGTGCAG	9020 fluorescence intensity (a.u.)
ATCATAATATGTGGTTCTTTTTATTTAAAATATTTTATTTCGGAGTCACCTAGTGCAG	9230 fluorescence intensity (a.u.)
CTCCTGCCTGGGTTTGGTTTGGTTTGGCTTTGCTTCTTCCCGGAGTCACCTAGTGCAG	36800 fluorescence intensity (a.u.)
AATCAACTCCACTGTATCAGCCAGCTGCTTCGGAAAGCTCCGGAGTCACCTAGTGCAG	10300 fluorescence intensity (a.u.)
